# Measured values taken from the supplement of paper PMC10032668.
# Sequences of proteins named here, by UniProt entry; tags and fusion partners are left off.
# CD2AP, Q9Y5K6, UniProt Q9Y5K6, whole entry: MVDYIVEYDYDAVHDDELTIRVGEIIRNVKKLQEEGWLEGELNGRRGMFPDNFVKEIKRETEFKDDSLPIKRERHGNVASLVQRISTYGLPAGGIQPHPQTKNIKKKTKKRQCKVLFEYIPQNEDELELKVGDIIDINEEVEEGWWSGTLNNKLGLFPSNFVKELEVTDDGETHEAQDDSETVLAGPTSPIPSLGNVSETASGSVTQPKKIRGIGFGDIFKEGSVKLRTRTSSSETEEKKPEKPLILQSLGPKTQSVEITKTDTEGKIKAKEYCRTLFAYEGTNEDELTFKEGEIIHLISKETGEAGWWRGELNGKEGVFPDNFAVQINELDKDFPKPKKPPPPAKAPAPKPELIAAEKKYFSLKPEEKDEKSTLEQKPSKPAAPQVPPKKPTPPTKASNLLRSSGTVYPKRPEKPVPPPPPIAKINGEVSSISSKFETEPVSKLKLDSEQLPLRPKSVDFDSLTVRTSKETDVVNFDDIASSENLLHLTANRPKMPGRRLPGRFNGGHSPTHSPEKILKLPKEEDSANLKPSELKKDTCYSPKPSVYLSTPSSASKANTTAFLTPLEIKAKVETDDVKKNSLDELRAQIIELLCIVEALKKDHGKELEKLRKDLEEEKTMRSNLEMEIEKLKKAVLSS
# DNAJC13, O75165, UniProt O75165, whole entry: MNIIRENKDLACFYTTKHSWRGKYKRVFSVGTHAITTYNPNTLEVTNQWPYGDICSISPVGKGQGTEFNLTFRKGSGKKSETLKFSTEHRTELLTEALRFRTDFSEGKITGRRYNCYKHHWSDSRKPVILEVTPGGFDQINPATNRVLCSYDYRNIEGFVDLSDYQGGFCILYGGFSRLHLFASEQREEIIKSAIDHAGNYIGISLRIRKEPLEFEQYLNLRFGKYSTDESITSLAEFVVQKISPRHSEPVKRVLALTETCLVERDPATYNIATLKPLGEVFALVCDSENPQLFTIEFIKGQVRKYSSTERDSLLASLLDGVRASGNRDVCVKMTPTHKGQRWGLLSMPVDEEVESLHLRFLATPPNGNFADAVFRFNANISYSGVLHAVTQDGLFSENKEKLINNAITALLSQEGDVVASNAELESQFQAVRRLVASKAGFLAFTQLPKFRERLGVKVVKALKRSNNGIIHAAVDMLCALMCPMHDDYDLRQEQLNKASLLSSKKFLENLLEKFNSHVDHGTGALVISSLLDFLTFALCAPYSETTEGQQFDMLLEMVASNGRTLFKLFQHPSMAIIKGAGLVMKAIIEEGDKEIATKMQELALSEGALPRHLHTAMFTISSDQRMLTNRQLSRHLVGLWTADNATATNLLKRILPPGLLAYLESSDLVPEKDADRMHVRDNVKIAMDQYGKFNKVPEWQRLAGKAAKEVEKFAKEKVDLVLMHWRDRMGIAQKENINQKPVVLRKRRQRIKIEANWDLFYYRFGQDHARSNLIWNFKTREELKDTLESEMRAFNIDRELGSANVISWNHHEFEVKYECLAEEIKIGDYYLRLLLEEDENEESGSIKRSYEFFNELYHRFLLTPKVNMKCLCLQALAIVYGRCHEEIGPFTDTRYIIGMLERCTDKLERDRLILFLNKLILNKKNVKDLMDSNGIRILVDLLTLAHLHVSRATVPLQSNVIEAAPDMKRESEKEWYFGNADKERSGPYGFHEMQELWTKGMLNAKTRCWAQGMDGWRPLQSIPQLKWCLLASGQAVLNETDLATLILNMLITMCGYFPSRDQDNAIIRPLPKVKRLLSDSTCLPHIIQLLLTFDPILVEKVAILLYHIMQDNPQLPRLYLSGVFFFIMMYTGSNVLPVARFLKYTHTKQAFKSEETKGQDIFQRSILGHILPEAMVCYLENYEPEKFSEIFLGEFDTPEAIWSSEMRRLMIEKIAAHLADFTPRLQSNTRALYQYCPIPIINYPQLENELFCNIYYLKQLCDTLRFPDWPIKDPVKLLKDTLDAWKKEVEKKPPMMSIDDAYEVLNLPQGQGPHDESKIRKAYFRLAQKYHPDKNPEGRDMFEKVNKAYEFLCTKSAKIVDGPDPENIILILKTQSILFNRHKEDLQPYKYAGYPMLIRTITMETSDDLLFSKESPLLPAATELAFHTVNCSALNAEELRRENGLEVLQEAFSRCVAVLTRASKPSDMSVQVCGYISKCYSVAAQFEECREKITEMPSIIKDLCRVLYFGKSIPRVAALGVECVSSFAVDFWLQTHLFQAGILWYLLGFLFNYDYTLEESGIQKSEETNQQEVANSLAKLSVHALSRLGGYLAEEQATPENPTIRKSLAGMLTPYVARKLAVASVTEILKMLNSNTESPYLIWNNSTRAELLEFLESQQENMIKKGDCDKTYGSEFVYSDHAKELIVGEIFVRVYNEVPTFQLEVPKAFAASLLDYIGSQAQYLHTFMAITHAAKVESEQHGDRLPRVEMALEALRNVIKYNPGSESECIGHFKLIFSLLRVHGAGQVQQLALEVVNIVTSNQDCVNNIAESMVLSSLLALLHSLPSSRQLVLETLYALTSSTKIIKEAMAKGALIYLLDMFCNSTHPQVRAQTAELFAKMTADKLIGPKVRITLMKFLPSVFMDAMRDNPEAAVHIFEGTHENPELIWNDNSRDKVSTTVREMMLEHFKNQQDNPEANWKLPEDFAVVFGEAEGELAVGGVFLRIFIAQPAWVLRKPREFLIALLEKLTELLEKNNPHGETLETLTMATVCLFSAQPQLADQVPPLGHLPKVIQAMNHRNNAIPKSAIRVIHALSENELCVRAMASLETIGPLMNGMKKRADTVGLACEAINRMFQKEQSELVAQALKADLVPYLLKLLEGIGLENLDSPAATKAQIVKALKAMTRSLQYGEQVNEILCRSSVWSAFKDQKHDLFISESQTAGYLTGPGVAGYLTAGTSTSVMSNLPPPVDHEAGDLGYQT
# PFN1, P07737, UniProt P07737, whole entry: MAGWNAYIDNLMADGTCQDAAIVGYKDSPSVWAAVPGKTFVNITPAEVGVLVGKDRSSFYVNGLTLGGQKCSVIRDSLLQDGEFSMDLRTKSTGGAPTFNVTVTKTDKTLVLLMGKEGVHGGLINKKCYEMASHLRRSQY
# TARDBP, Q13148, UniProt Q13148, whole entry: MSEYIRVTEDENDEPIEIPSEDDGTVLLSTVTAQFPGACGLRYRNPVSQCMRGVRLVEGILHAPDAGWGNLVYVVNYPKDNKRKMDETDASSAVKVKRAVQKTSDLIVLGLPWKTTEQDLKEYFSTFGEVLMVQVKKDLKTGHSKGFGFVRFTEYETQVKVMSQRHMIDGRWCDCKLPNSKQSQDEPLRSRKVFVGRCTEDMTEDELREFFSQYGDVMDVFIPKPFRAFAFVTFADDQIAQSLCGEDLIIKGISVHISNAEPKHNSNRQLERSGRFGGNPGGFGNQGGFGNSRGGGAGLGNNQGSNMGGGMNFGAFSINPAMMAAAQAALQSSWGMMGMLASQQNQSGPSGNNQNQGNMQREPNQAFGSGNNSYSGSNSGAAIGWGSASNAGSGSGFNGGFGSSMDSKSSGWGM
# TRAPPC5, Q8IUR0, UniProt Q8IUR0, whole entry: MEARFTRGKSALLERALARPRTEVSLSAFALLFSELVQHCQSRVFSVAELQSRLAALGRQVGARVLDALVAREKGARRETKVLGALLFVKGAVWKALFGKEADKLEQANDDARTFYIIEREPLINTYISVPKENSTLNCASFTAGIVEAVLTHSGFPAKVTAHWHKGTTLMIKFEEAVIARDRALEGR
# KPNA1, P52294, UniProt P52294, whole entry: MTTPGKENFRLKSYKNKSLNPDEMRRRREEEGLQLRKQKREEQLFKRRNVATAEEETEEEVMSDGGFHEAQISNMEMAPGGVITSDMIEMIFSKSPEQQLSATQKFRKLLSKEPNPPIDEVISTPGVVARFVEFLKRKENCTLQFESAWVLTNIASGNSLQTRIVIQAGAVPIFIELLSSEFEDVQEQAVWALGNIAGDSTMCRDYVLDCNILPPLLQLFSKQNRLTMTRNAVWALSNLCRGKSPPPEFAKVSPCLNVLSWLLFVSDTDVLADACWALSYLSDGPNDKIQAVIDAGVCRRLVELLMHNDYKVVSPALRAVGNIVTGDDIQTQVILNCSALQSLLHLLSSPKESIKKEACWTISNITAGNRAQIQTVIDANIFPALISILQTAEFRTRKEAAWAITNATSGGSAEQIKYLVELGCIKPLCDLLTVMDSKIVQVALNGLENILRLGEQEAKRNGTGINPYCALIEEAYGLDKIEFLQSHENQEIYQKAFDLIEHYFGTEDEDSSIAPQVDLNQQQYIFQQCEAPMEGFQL
# NDUFV1, P49821, UniProt P49821, whole entry: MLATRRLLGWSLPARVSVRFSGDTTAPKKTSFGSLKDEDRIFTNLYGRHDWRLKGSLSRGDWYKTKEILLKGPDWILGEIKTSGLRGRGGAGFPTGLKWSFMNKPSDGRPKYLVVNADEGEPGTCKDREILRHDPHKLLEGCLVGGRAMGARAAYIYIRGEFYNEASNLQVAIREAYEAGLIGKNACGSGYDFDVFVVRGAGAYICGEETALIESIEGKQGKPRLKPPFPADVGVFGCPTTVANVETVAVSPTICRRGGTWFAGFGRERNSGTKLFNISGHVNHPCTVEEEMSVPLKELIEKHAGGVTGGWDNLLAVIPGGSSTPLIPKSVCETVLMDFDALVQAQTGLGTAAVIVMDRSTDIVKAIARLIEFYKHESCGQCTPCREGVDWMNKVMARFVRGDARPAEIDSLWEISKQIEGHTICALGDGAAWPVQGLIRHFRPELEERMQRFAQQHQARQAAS
# PSMD14, O00487, UniProt O00487, whole entry: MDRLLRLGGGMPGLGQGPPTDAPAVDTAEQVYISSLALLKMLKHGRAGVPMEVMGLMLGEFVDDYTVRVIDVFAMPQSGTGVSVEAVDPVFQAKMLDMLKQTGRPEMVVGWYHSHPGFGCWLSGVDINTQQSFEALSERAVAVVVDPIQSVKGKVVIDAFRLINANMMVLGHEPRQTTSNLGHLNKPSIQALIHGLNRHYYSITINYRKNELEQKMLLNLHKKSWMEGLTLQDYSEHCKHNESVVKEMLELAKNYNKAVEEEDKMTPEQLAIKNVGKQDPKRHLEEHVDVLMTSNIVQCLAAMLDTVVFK
# SERPINA1, P01009, UniProt P01009, whole entry: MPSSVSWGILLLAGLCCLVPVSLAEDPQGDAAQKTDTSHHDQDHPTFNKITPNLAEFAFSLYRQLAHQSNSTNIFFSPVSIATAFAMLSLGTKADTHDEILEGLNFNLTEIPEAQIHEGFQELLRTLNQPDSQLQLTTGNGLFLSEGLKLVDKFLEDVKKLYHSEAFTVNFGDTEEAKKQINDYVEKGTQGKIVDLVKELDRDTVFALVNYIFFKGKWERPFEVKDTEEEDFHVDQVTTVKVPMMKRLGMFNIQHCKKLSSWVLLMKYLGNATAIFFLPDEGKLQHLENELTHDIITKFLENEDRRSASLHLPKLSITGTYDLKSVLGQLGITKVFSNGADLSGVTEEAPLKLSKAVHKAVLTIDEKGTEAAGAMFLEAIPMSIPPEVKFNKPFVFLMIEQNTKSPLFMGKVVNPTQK
# The other results are listed elsewhere or left out. Only hits are listed; about a third recur on repeated control peptides.
# Key:
# Assay in all cases: PRISMA enrichment of interactor (LFQ) in peptide spot vs all other peptide spots (log2 fold change); higher = stronger / more specific binding of the interactor to the peptide
# [1] = biological target: AIMP2, Q13155
# Procedure: (§1)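 PRISMA: 15-aa overlapping tiles (offset 8 aa) of 60 microproteins, plus SOS1/GLUT1 control peptides, were spot-synthesized on cellulose membranes in triplicate. Membranes were incubated with benzonase-treated HEK293T lysate, and bound proteins were identified by LC-MS/MS with LFQ. Enrichment is the log2 fold change of each protein in one spot versus all other spots. Only interactors passing the significance cutoff are listed.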
# [2] = biological target: C19orf53, Q9UNZ5
# Procedure: as §1
# [3] = biological target: CD2AP, Q9Y5K6
# Procedure: as §1
# [4] = substrate: CNBP, P62633
# Procedure: as §1
# [5] = biological target: COPS2, P61201
# Procedure: as §1
# [6] = biological target: DARS2, Q6PI48
# Procedure: as §1
# [7] = biological target: DCUN1D5, Q9BTE7
# Procedure: as §1
# [8] = biological target: DDX28, Q9NUL7
# Procedure: as §1
# [9] = biological target: DNAJA2, O60884
# Procedure: as §1
# [10] = biological target: DNAJC13, O75165
# Procedure: as §1
# [11] = biological target: FLYWCH2, Q96CP2
# Procedure: as §1
# [12] = biological target: GPAT4, Q86UL3
# Procedure: as §1
# [13] = biological target: HTATSF1, O43719
# Procedure: as §1
# [14] = biological target: IVD, P26440
# Procedure: as §1
# [15] = biological target: IWS1, Q96ST2
# Procedure: as §1
# [16] = biological target: MARK2, Q7KZI7
# Procedure: as §1
# [17] = biological target: MRPL24, Q96A35
# Procedure: as §1
# [18] = biological target: MRPS15, P82914
# Procedure: as §1
# [19] = biological target: MRPS23, Q9Y3D9
# Procedure: as §1
# [20] = biological target: NAT10, Q9H0A0
# Procedure: as §1
# [21] = biological target: NOC4L, Q9BVI4
# Procedure: as §1
# [22] = biological target: NUP37, Q8NFH4
# Procedure: as §1
# [23] = biological target: NUP85, Q9BW27
# Procedure: as §1
# [24] = biological target: PFN1, P07737
# Procedure: as §1
# [25] = biological target: PJA2, O43164
# Procedure: as §1
# [26] = biological target: POLD2, P49005
# Procedure: as §1
# [27] = substrate: PPIF, P30405
# Procedure: as §1
# [28] = biological target: PRRC2B, Q5JSZ5
# Procedure: as §1
# [29] = biological target: RBM12B, Q8IXT5
# Procedure: as §1
# [30] = biological target: RNF5, Q99942
# Procedure: as §1
# [31] = biological target: SF3B4, Q15427
# Procedure: as §1
# [32] = biological target: SPTLC1, O15269
# Procedure: as §1
# [33] = biological target: TARDBP, Q13148
# Procedure: as §1
# [34] = biological target: TRAPPC5, Q8IUR0
# Procedure: as §1
# [35] = biological target: VRK1, Q99986
# Procedure: as §1
# [36] = biological target: ZC3H14, Q6PJT7
# Procedure: as §1
# [37] = biological target: ZNF281, Q9Y2X9
# Procedure: as §1
# [38] = biological target: AK4, P27144
# Procedure: as §1
# [39] = biological target: ARF5, P84085
# Procedure: as §1
# [40] = biological target: ARMC6, Q6NXE6
# Procedure: as §1
# [41] = biological target: CDC40, O60508
# Procedure: as §1
# [42] = biological target: CHTOP, Q9Y3Y2
# Procedure: as §1
# [43] = biological target: DDX49, Q9Y6V7
# Procedure: as §1
# [44] = biological target: DLGAP5, Q15398
# Procedure: as §1
# [45] = biological target: ETFA, P13804
# Procedure: as §1
# [46] = biological target: GNPDA1, P46926
# Procedure: as §1
# [47] = biological target: KPNA1, P52294
# Procedure: as §1
# [48] = biological target: LETMD1, Q6P1Q0
# Procedure: as §1
# [49] = biological target: MRPS5, P82675
# Procedure: as §1
# [50] = biological target: MUC19, Q7Z5P9
# Procedure: as §1
# [51] = biological target: NDUFV1, P49821
# Procedure: as §1
# [52] = biological target: NNT, Q13423
# Procedure: as §1
# [53] = biological target: PAWR, Q96IZ0
# Procedure: as §1
# [54] = biological target: PICALM, Q13492
# Procedure: as §1
# [55] = biological target: PSMD14, O00487
# Procedure: as §1
# [56] = biological target: RPL39P5, Q59GN2
# Procedure: as §1
# [57] = biological target: SERPINA1, P01009
# Procedure: as §1
# [58] = biological target: SUPT6H, Q7KZ85
# Procedure: as §1
# [59] = biological target: TOP1, P11387
# Procedure: as §1
# [60] = biological target: UCK2, Q9BZX2
# Procedure: as §1
# [61] = biological target: VWA8, A3KMH1
# Procedure: as §1
binder,measurement,setting,value
IHSGGDLTCHCEQLL [LINC01128],PRISMA enrichment of interactor (log2),[1],5.23
same,PRISMA enrichment of interactor (log2),[2],5.89
same,PRISMA enrichment of interactor (log2),[3],4.79
same,PRISMA enrichment of interactor (log2),[4],5.76
same,PRISMA enrichment of interactor (log2),[5],5.05
same,PRISMA enrichment of interactor (log2),[6],4.69
same,PRISMA enrichment of interactor (log2),[7],5.78
same,PRISMA enrichment of interactor (log2),[8],5.63
same,PRISMA enrichment of interactor (log2),[9],6.78
same,PRISMA enrichment of interactor (log2),[10],4.19
same,PRISMA enrichment of interactor (log2),[11],4.13
same,PRISMA enrichment of interactor (log2),[12],4.05
same,PRISMA enrichment of interactor (log2),[13],6.24
same,PRISMA enrichment of interactor (log2),[14],5.33
same,PRISMA enrichment of interactor (log2),[15],6.82
same,PRISMA enrichment of interactor (log2),[16],4.24
same,PRISMA enrichment of interactor (log2),[17],5.17
same,PRISMA enrichment of interactor (log2),[18],8.59
same,PRISMA enrichment of interactor (log2),[19],6.76
same,PRISMA enrichment of interactor (log2),[20],4.74
same,PRISMA enrichment of interactor (log2),[21],4.42
same,PRISMA enrichment of interactor (log2),[22],3.9
same,PRISMA enrichment of interactor (log2),[23],6.37
same,PRISMA enrichment of interactor (log2),[24],5.05
same,PRISMA enrichment of interactor (log2),[25],4.49
same,PRISMA enrichment of interactor (log2),[26],7.13
same,PRISMA enrichment of interactor (log2),[27],4.73
same,PRISMA enrichment of interactor (log2),[28],6.58
same,PRISMA enrichment of interactor (log2),[29],4.13
same,PRISMA enrichment of interactor (log2),[30],4.22
same,PRISMA enrichment of interactor (log2),[31],4.97
same,PRISMA enrichment of interactor (log2),[32],4.51
same,PRISMA enrichment of interactor (log2),[33],8.1
same,PRISMA enrichment of interactor (log2),[34],7.46
same,PRISMA enrichment of interactor (log2),[35],5.43
same,PRISMA enrichment of interactor (log2),[36],8.12
same,PRISMA enrichment of interactor (log2),[37],5.61
WLGTPPLLREMSMDS [NAV2-AS2],PRISMA enrichment of interactor (log2),[38],8.1
same,PRISMA enrichment of interactor (log2),[39],4.22
same,PRISMA enrichment of interactor (log2),[40],5.21
same,PRISMA enrichment of interactor (log2),[41],3.99
same,PRISMA enrichment of interactor (log2),[42],5.37
same,PRISMA enrichment of interactor (log2),[43],5.22
same,PRISMA enrichment of interactor (log2),[44],5.18
same,PRISMA enrichment of interactor (log2),[45],5.64
same,PRISMA enrichment of interactor (log2),[46],5.68
same,PRISMA enrichment of interactor (log2),[47],5.13
same,PRISMA enrichment of interactor (log2),[48],3.98
same,PRISMA enrichment of interactor (log2),[49],6.98
same,PRISMA enrichment of interactor (log2),[50],8.28
same,PRISMA enrichment of interactor (log2),[51],4.8
same,PRISMA enrichment of interactor (log2),[52],4.04
same,PRISMA enrichment of interactor (log2),[53],4.53
same,PRISMA enrichment of interactor (log2),[54],10.2
same,PRISMA enrichment of interactor (log2),[55],4.26
same,PRISMA enrichment of interactor (log2),[56],4.87
same,PRISMA enrichment of interactor (log2),[57],4.26
same,PRISMA enrichment of interactor (log2),[58],5.63
same,PRISMA enrichment of interactor (log2),[59],6.89
same,PRISMA enrichment of interactor (log2),[60],5.52
same,PRISMA enrichment of interactor (log2),[61],3.94

# Random excerpt: five entries already listed.
binder,measurement,setting,value
IHSGGDLTCHCEQLL [LINC01128],PRISMA enrichment of interactor (log2),[21],4.42
same,PRISMA enrichment of interactor (log2),[8],5.63
same,PRISMA enrichment of interactor (log2),[30],4.22
same,PRISMA enrichment of interactor (log2),[15],6.82
WLGTPPLLREMSMDS [NAV2-AS2],PRISMA enrichment of interactor (log2),[47],5.13
